The source of these data is article PMC7819943, “Rice protein-binding microarrays: a tool to detect cis-acting elements near promoter regions in rice”.

Amino acid sequences for entries named in this document (tags omitted).
UniProt Q0JBA9, entry or part of it: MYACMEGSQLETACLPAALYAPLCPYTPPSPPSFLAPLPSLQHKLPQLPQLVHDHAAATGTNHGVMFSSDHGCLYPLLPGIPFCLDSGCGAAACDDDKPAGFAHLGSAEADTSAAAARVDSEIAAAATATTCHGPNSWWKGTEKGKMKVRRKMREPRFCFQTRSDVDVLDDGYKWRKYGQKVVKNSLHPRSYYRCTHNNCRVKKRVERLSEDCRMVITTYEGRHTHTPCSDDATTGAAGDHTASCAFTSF

This is one part of the list.

The target in the test is OsWRKY34 (Oryza sativa, UniProt Q0JBA9 1-250). The test is described as follows: protein-binding microarray (RPBM); PBS, 2% BSA, 51.3 ng/ul salmon testes DNA, 50 uM zinc acetate, 200 nM TF, 25 C, 1 h; high values mean tight binding. Conditions: protein: recombinant; tags: N-terminal polyhistidine and DsRed monomer fusion (pET32a); label: CyDye5-dUTP incorporated in the synthesized complementary strand; 3' TTTTT single-stranded linker to array surface; dsDNA, one strand shown. The method, boiled down: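 An Axon 4000B scanner gave the binding signal as per-feature fluorescence intensity in arbitrary units. This followed washing of a custom Agilent array that had been incubated for 1 h at 25 °C with 200 nM protein in PBS, 2% BSA, salmon testes DNA and 50 µM zinc acetate. The proteins were transcription factors fused at the N-terminus to polyhistidine and DsRed, expressed in E. coli BL21-CodonPlus and purified on Ni–NTA.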
In the case of “TTGTTATTGTTGGTGATGATGCTCATATGCTGTAGAGGGGCGGAGTCACCTAGTGCAG”, the binding signal was 8240 fluorescence intensity (a.u.). To “GTGGTGTGTGTTTACATGTAAGATTAGACAGTTGCCAAGCCGGAGTCACCTAGTGCAG” belongs 8710 fluorescence intensity (a.u.).

For “CCAGCGTAACGTCCACTCATCGCGAGCCGCTCAATCCAAACGGAGTCACCTAGTGCAG”, the binding signal was 9480 fluorescence intensity (a.u.). To “GTCGCTCACTTCTCGTTCAGGTTCAGCAATCGCAATCTCGCGGAGTCACCTAGTGCAG” belongs 12100 fluorescence intensity (a.u.); to “TTAAAAAAAAGTCAACGATGATAAATATTTAGAGAGTGAGCGGAGTCACCTAGTGCAG”, 13100 fluorescence intensity (a.u.). As for “AAGGTTGTGTTCGTTTCTTTGAGGTTTCCAACCTCCACTACGGAGTCACCTAGTGCAG”, the figure is 9190 fluorescence intensity (a.u.); as for “CCCCAAATTCCAGTGGCACATAGCCGATATCGCAAATAGTCGGAGTCACCTAGTGCAG”, 9170 fluorescence intensity (a.u.). To “ACTCTTGCCGACAACGTCTTCTCTTCCAGCTTCAATCCCACGGAGTCACCTAGTGCAG” belongs 11300 fluorescence intensity (a.u.); to “GTACTAACTGGTTTCGTTCAATTTATTTTACATCTTATCACGGAGTCACCTAGTGCAG”, 9000 fluorescence intensity (a.u.). Consider “GCTTATGTGCATGCGCACTATACTTTTGCTGGTTTTATCACGGAGTCACCTAGTGCAG”, for which the binding signal was 11500 fluorescence intensity (a.u.). To “CACTGGTCAACAGGTTGATGACTGTTTGACCGGATTTTGTCGGAGTCACCTAGTGCAG” belongs 11100 fluorescence intensity (a.u.); to “GAGGGAAAAAAATCTCTTGTATTTCACGTGCACATTTGTCCGGAGTCACCTAGTGCAG”, 8670 fluorescence intensity (a.u.); to “TATGTCCCTGTGTTGATCCTAATGGTAGCCTTGCTATCTCCGGAGTCACCTAGTGCAG”, 11700 fluorescence intensity (a.u.). Take “GTAGCCCTCGTCGTCATTCTTATCCTCCTACTTCCGTTACCGGAGTCACCTAGTGCAG”: the binding signal is 11000 fluorescence intensity (a.u.).

Turning to “GATGATGTGGCTCTATGCATGTCAAGCTTTTGATTCTAGTCGGAGTCACCTAGTGCAG”, the binding signal is 8070 fluorescence intensity (a.u.). As for “AACCTAAATCCAATGCTACCCTAATCGTGGCCTCCTCGTCCGGAGTCACCTAGTGCAG”, the figure is 8490 fluorescence intensity (a.u.); as for “GCCCATAAACAGATCTAGTGAATTGCATTTTCATAAACATCGGAGTCACCTAGTGCAG”, 8700 fluorescence intensity (a.u.); as for “AATCGGTTGTTTTTTTCGTCCACACTTAATGCTCCATACACGGAGTCACCTAGTGCAG”, 8670 fluorescence intensity (a.u.). Consider “GGTTCCGATTCCTTCTGGCCATCGATCTTATCTGGATTACCGGAGTCACCTAGTGCAG”, for which the binding signal was 9820 fluorescence intensity (a.u.). Turning to “CATGGGGTTAGGGCTGGTGTGTCCGGCCGCCTTGCGCGCCCGGAGTCACCTAGTGCAG”, the binding signal was 10800 fluorescence intensity (a.u.). As for “CCAAAGACCAAGAAATAATTATTATCATCTTGTAGTTTGGCGGAGTCACCTAGTGCAG”, the figure is 11300 fluorescence intensity (a.u.). As for “GGTGGGTGTTTTAATGTGACATGATATTTGTGGTTGGGTTCGGAGTCACCTAGTGCAG”, the figure is 21700 fluorescence intensity (a.u.). To “ACTCATTTCACACTCACACCCCACACAAATTCTCGTATTACGGAGTCACCTAGTGCAG” belongs 8400 fluorescence intensity (a.u.); to “CTGGCCATCACTCCTGACCGTTAGCTCTACCACCCCTCTGCGGAGTCACCTAGTGCAG”, 8180 fluorescence intensity (a.u.); to “GCTCTCTTGGCCTAGTGTTACATGTAAACGAATTGATGTACGGAGTCACCTAGTGCAG”, 8130 fluorescence intensity (a.u.). In the case of “CTCTCTCCCCTACCTATCTTATCTATCAGCGTCTGTCTCACGGAGTCACCTAGTGCAG”, the binding signal was 8290 fluorescence intensity (a.u.).

For “AGCAGTTCACTTATTCTCCCTATTTAGGCCTTGTTTAGTCCGGAGTCACCTAGTGCAG”, the binding signal was 10300 fluorescence intensity (a.u.).

“TATGCTTTTCATCTCATTTTCCCTATATTCATGTCAAATTCGGAGTCACCTAGTGCAG”: the binding signal is 8450 fluorescence intensity (a.u.).

With “TCCGGCTGTGTGAGTCGCAAGCGACTTTTTTTCTCTTTTCCGGAGTCACCTAGTGCAG”, the binding signal is 14300 fluorescence intensity (a.u.). To “TGCTTGTTATCTTGCTTGGCTGATTGTTTTGTCAAGGAGTCGGAGTCACCTAGTGCAG” belongs 9290 fluorescence intensity (a.u.). As for “GCCACCGCCGCCGTCGCCACACTCCACCGCTGGCCCCGCTCGGAGTCACCTAGTGCAG”, the figure is 12900 fluorescence intensity (a.u.); as for “TCTCTCTCCTCAACCAGCTGTCTCGCGGTCGCCGGCGGCGCGGAGTCACCTAGTGCAG”, 9230 fluorescence intensity (a.u.).

Turning to “TCTCTCTACCCTTCGTCAACTCCTTCAAATCCAGCCTACACGGAGTCACCTAGTGCAG”, the binding signal is 8590 fluorescence intensity (a.u.). To “TGTCCACATTCCCTGCCCCTGTACTCATTTTTAATTAATTCGGAGTCACCTAGTGCAG” belongs 8240 fluorescence intensity (a.u.); to “CACTGAACTCCACACAGTTGCACAGCCCAATAACCCATTCCGGAGTCACCTAGTGCAG”, 8720 fluorescence intensity (a.u.); to “CCGAAACTCCTTTCCTTCTTCCTTTTTGGTCCAATCCTTTCGGAGTCACCTAGTGCAG”, 9270 fluorescence intensity (a.u.). Take “GTTAATCAGACAAACCTCTCCTTTCATCCTTTGGATACTGCGGAGTCACCTAGTGCAG”: the binding signal was 8330 fluorescence intensity (a.u.). As for “CACACGATGATGGTTGACTGCTGGGCCCAGTTGTTGACTTCGGAGTCACCTAGTGCAG”, the figure is 8520 fluorescence intensity (a.u.); as for “TCCATTTATTACCGTCATCTTATATAATCTTCAATTAGACCGGAGTCACCTAGTGCAG”, 8650 fluorescence intensity (a.u.).

Regarding “TCATTTCCGACCGTTTTCATACCTACCTGTAAGCTTAGCCCGGAGTCACCTAGTGCAG”, the binding signal is 13700 fluorescence intensity (a.u.). Consider “GTTCCCTTTGCAGCTAGGACGATACGGCTACACTTTTTTCCGGAGTCACCTAGTGCAG”, for which the binding signal was 8170 fluorescence intensity (a.u.). As for “CTGCTGCATCTGCACTGCATGGCCATGCCCACACACTTGGCGGAGTCACCTAGTGCAG”, the figure is 8050 fluorescence intensity (a.u.).
